First the molecules themselves.
B1: Zinc finger protein 622 (protein, UniProt Q969S3 1-477)
chain: MATYTCITCRVAFRDADMQRAHYKTDWHRYNLRRKVASMAPVTAEGFQERVRAQRAVAEEESKGSATYCTVCSKKFASFNAYENHLKSRRHVELEKKAVQAVNRKVEMMNEKNLEKGLGVDSVDKDAMNAAIQQAIKAQPSMSPKKAPPAPAKEARNVVAVGTGGRGTHDRDPSEKPPRLQWFEQQAKKLAKQQEEDSEEEEEDLDGDDWEDIDSDEELECEDTEAMDDVVEQDAEEEEAEEGPPLGAIPITDCLFCSHHSSSLMKNVAHMTKDHSFFIPDIEYLSDIKGLIKYLGEKVGVGKICLWCNEKGKSFYSTEAVQAHMNDKSHCKLFTDGDAALEFADFYDFRSSYPDHKEGEDPNKAEELPSEKNLEYDDETMELILPSGARVGHRSLMRYYKQRFGLSRAVAVAKNRKAVGRVLQQYRALGWTGSTGAALMRERDMQYVQRMKSKWMLKTGMKNNATKQMHFRVQVRF
B2: Constitutive coactivator of PPAR-gamma-like protein 1 (protein, UniProt Q9NZB2 1-1118)
chain: MGVQGFQDYIEKHCPSAVVPVELQKLARGSLVGGGRQRPPQTPLRLLVDADNCLHRLYGGFYTDWVSGGQWNHMLGYLAALAKACFGGNIELFVFFNGALEKARLHEWVKRQGNERQTAQQIVSHVQNKGTPPPKVWFLPPVCMAHCIRLALIRFHVKVAQSIEDHHQEVIGFCRENGFHGLVAYDSDYALCNIPYYFSAHALKLSRNGKSLTTSQYLMHEVAKQLDLNPNRFPIFAALLGNHILPDEDLASFHWSLLGPEHPLASLKVRAHQLVLPPCDVVIKAVADYVRNIQDTSDLDAIAKDVFQHSQSRTDDKVIRFKRAIGYYSATSKPMSFHPPHYLAARPGPFGMPGMVPPHVPPQMLNIPQTSLQAKPVAPQVPSPGGAPGQGPYPYSLSEPAPLTLDTSGKNLTEQNSYSNIPHEGKHTPLYERSSPINPAQSGSPNHVDSAYFPGSSTSSSSDNDEGSGGATNHISGNKIGWEKTGSHSEPQARGDPGDQTKAEGSSTASSGSQLAEGKGSQMGTVQPIPCLLSMPTRNHMDITTPPLPPVAPEVLRVAEHRHKKGLMYPYIFHVLTKGEIKIAVSIEDEANKDLPPAALLYRPVRQYVYGVLFSLAESRKKTERLAFRKNRLPPEFSPVIIKEWAAYKGKSPQTPELVEALAFREWTCPNLKRLWLGKAVEDKNRRMRAFLACMRSDTPAMLNPANVPTHLMVLCCVLRYMVQWPGARILRRQELDAFLAQALSPKLYEPDQLQELKIENLDPRGIQLSALFMSGVDMALFANDACGQPIPWEHCCPWMYFDGKLFQSKLLKASREKTPLIDLCDGQADQAAKVEKMRQSVLEGLSFSRQSHTLPFPPPPALPFYPASAYPRHFGPVPPSQGRGRGFAGVCGFGGPYGETVATGPYRAFRVAAASGHCGAFSGSDSSRTSKSQGGVQPIPSQGGKLEIAGTVVGHWAGSRRGRGGRGPFPLQVVSVGGPARGRPRGVISTPVIRTFGRGGRYYGRGYKNQAAIQGRPPYAASAEEVAKELKSKSGESKSSAMSSDGSLAENGVMAEEKPAPQMNGSTGDARAPSHSESALNNDSKTCNTNPHLNALSTDSACRREAALEAAVLNKEE
B3: Exosome component 10 (protein, UniProt Q01780 1-885)
chain: MAPPSTREPRVLSATSATKSDGEMVLPGFPDADSFVKFALGSVVAVTKASGGLPQFGDEYDFYRSFPGFQAFCETQGDRLLQCMSRVMQYHGCRSNIKDRSKVTELEDKFDLLVDANDVILERVGILLDEASGVNKNQQPVLPAGLQVPKTVVSSWNRKAAEYGKKAKSETFRLLHAKNIIRPQLKFREKIDNSNTPFLPKIFIKPNAQKPLPQALSKERRERPQDRPEDLDVPPALADFIHQQRTQQVEQDMFAHPYQYELNHFTPADAVLQKPQPQLYRPIEETPCHFISSLDELVELNEKLLNCQEFAVDLEHHSYRSFLGLTCLMQISTRTEDFIIDTLELRSDMYILNESLTDPAIVKVFHGADSDIEWLQKDFGLYVVNMFDTHQAARLLNLGRHSLDHLLKLYCNVDSNKQYQLADWRIRPLPEEMLSYARDDTHYLLYIYDKMRLEMWERGNGQPVQLQVVWQRSRDICLKKFIKPIFTDESYLELYRKQKKHLNTQQLTAFQLLFAWRDKTARREDESYGYVLPNHMMLKIAEELPKEPQGIIACCNPVPPLVRQQINEMHLLIQQAREMPLLKSEVAAGVKKSGPLPSAERLENVLFGPHDCSHAPPDGYPIIPTSGSVPVQKQASLFPDEKEDNLLGTTCLIATAVITLFNEPSAEDSKKGPLTVAQKKAQNIMESFENPFRMFLPSLGHRAPVSQAAKFDPSTKIYEISNRWKLAQVQVQKDSKEAVKKKAAEQTAAREQAKEACKAAAEQAISVRQQVVLENAAKKRERATSDPRTTEQKQEKKRLKISKKPKDPEPPEKEFTPYDYSQSDFKAFAGNSKSKVSSQFDPNKQTPSGKKCIAAKKIKQSVGNKSMSFPTGKSDRGFRYNWPQR
B4: Aldehyde dehydrogenase X, mitochondrial (protein, UniProt P30837 18-517)
chain: RYSSAAALPSPILNPDIPYNQLFINNEWQDAVSKKTFPTVNPTTGEVIGHVAEGDRADVDRAVKAAREAFRLGSPWRRMDASERGRLLNRLADLVERDRVYLASLETLDNGKPFQESYALDLDEVIKVYRYFAGWADKWHGKTIPMDGQHFCFTRHEPVGVCGQIIPWNFPLVMQGWKLAPALATGNTVVMKVAEQTPLSALYLASLIKEAGFPPGVVNIITGYGPTAGAAIAQHVDVDKVAFTGSTEVGHLIQKAAGDSNLKRVTLELGGKSPSIVLADADMEHAVEQCHEALFFNMGQCCCAGSRTFVEESIYNEFLERTVEKAKQRKVGNPFELDTQQGPQVDKEQFERVLGYIQLGQKEGAKLLCGGERFGERGFFIKPTVFGGVQDDMRIAKEEIFGPVQPLFKFKKIEEVVERANNTRYGLAAAVFTRDLDKAMYFTQALQAGTVWVNTYNIVTCHTPFGGFKESGNGRELGEDGLKAYTEVKTVTIKVPQKNS
B5: ATP-dependent RNA helicase DDX50 (protein, UniProt Q9BQ39 1-737)
chain: MPGKLLWGDIMELEAPLEESESQKKERQKSDRRKSRHHYDSDEKSETRENGVTDDLDAPKAKKSKMKEKLNGDTEEGFNRLSDEFSKSHKSRRKDLPNGDIDEYEKKSKRVSSLDTSTHKSSDNKLEETLTREQKEGAFSNFPISEETIKLLKGRGVTYLFPIQVKTFGPVYEGKDLIAQARTGTGKTFSFAIPLIERLQRNQETIKKSRSPKVLVLAPTRELANQVAKDFKDITRKLSVACFYGGTSYQSQINHIRNGIDILVGTPGRIKDHLQSGRLDLSKLRHVVLDEVDQMLDLGFAEQVEDIIHESYKTDSEDNPQTLLFSATCPQWVYKVAKKYMKSRYEQVDLVGKMTQKAATTVEHLAIQCHWSQRPAVIGDVLQVYSGSEGRAIIFCETKKNVTEMAMNPHIKQNAQCLHGDIAQSQREITLKGFREGSFKVLVATNVAARGLDIPEVDLVIQSSPPQDVESYIHRSGRTGRAGRTGICICFYQPRERGQLRYVEQKAGITFKRVGVPSTMDLVKSKSMDAIRSLASVSYAAVDFFRPSAQRLIEEKGAVDALAAALAHISGASSFEPRSLITSDKGFVTMTLESLEEIQDVSCAWKELNRKLSSNAVSQITRMCLLKGNMGVCFDVPTTESERLQAEWHDSDWILSVPAKLPEIEEYYDGNTSSNSRQRSGWSSGRSGRSGRSGGRSGGRSGRQSRQGSRSGSRQDGRRRSGNRNRSRSGGHKRSFD
B6: Putative ATP-dependent RNA helicase DHX30 (protein, UniProt Q7L2E3 1-1194)
chain: MFSLDSFRKDRAQHRQRQCKLPPPRLPPMCVNPTPGGTISRASRDLLKEFPQPKNLLNSVIGRALGISHAKDKLVYVHTNGPKKKKVTLHIKWPKSVEVEGYGSKKIDAERQAAAAACQLFKGWGLLGPRNELFDAAKYRVLADRFGSPADSWWRPEPTMPPTSWRQLNPESIRPGGPGGLSRSLGREEEEDEEEELEEGTIDVTDFLSMTQQDSHAPLRDSRGSSFEMTDDDSAIRALTQFPLPKNLLAKVIQIATSSSTAKNLMQFHTVGTKTKLSTLTLLWPCPMTFVAKGRRKAEAENKAAALACKKLKSLGLVDRNNEPLTHAMYNLASLRELGETQRRPCTIQVPEPILRKIETFLNHYPVESSWIAPELRLQSDDILPLGKDSGPLSDPITGKPYVPLLEAEEVRLSQSLLELWRRRGPVWQEAPQLPVDPHRDTILNAIEQHPVVVISGDTGCGKTTRIPQLLLERYVTEGRGARCNVIITQPRRISAVSVAQRVSHELGPSLRRNVGFQVRLESKPPSRGGALLFCTVGILLRKLQSNPSLEGVSHVIVDEVHERDVNTDFLLILLKGLQRLNPALRLVLMSATGDNERFSRYFGGCPVIKVPGFMYPVKEHYLEDILAKLGKHQYLHRHRHHESEDECALDLDLVTDLVLHIDARGEPGGILCFLPGWQEIKGVQQRLQEALGMHESKYLILPVHSNIPMMDQKAIFQQPPVGVRKIVLATNIAETSITINDIVHVVDSGLHKEERYDLKTKVSCLETVWVSRANVIQRRGRAGRCQSGFAYHLFPRSRLEKMVPFQVPEILRTPLENLVLQAKIHMPEKTAVEFLSKAVDSPNIKAVDEAVILLQEIGVLDQREYLTTLGQRLAHISTDPRLAKAIVLAAIFRCLHPLLVVVSCLTRDPFSSSLQNRAEVDKVKALLSHDSGSDHLAFVRAVAGWEEVLRWQDRSSRENYLEENLLYAPSLRFIHGLIKQFSENIYEAFLVGKPSDCTLASAQCNEYSEEEELVKGVLMAGLYPNLIQVRQGKVTRQGKFKPNSVTYRTKSGNILLHKSTINREATRLRSRWLTYFMAVKSNGSVFVRDSSQVHPLAVLLLTDGDVHIRDDGRRATISLSDSDLLRLEGDSRTVRLLKELRRALGRMVERSLRSELAALPPSVQEEHGQLLALLAELLRGPCGSFDVRKTADD
B7: Erlin-2 (protein, UniProt O94905 1-339)
chain: MAQLGAVVAVASSFFCASLFSAVHKIEEGHIGVYYRGGALLTSTSGPGFHLMLPFITSYKSVQTTLQTDEVKNVPCGTSGGVMIYFDRIEVVNFLVPNAVYDIVKNYTADYDKALIFNKIHHELNQFCSVHTLQEVYIELFDQIDENLKLALQQDLTSMAPGLVIQAVRVTKPNIPEAIRRNYELMESEKTKLLIAAQKQKVVEKEAETERKKALIEAEKVAQVAEITYGQKVMEKETEKKISEIEDAAFLAREKAKADAECYTAMKIAEANKLKLTPEYLQLMKYKAIASNSKIYFGKDIPNMFMDSAGSVSKQFEGLADKLSFGLEDEPLETATKEN

These are yes or no findings as the source states them, for the method shown. In cells and extracts the contact can be indirect. A yes stands for co-enrichment or nearness to the bait. Other partners may have been found.

Experimental findings from article PMC5841321 are described below.

For the experiment, the target named is T1, E3 ubiquitin-protein ligase Midline-1 (UniProt O15344).
T1 sequence: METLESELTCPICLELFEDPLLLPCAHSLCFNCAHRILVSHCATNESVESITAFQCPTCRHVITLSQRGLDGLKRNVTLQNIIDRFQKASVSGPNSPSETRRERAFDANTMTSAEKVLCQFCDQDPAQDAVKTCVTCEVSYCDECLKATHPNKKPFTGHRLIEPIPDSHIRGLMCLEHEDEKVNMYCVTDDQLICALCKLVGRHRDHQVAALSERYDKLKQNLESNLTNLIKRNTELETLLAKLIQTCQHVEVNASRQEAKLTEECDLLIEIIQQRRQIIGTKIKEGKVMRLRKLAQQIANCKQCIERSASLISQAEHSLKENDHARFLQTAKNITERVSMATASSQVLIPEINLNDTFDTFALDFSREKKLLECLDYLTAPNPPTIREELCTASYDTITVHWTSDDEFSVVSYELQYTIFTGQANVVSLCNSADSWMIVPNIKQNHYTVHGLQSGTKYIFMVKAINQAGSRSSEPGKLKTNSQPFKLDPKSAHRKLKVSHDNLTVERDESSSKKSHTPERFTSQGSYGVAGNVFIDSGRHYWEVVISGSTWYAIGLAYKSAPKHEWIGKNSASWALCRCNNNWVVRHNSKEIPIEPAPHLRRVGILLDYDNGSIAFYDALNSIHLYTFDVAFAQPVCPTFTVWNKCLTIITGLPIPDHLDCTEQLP
Description: affinity purification with mass spectrometry; MID1-FLAG expressed in HEK293T, lysate in TKM buffer (20 mM Tris pH 7.4, 100 mM KCl, 5 mM MgCl2, 0.5% NP40, 1 mM DTT), anti-FLAG M1 agarose overnight at 4 °C, 6 washes; untransfected cells as control; Q-Exactive, MaxQuant, 1% FDR.
Consider B1, for which the binding entry is listed as “binds”.
With B2 the entry was “binds”; with B3, “binds”.
Consider B4, for which the binding result is given as “binds”.
With B5 the entry was “binds”; with B6, “binds”.
With B7 the entry was “binds”.
